The target of this experiment is KLC2 TPR domain (kinesin light chain 2 tetratricopeptide repeat domain) (human) (UniProt Q9H0B6). Briefly: condition: peptide solution 1-3 mM injected into 60-130 uM KLC2-TPR; ITC; peptide (1-3 mM) in the syringe injected into 60-130 uM KLC1-TPR or KLC2-TPR (or mutant) in the cell; 25 C; 20 mM Bis-Tris pH 6.5, 500 mM NaCl, 0.5 mM TCEP; one-site binding model; both purified.

The chains behind the UniProt entries cited, without tags or fusion partners. Residues count along the entry.
UniProt Q9H0B6, residues 217-480: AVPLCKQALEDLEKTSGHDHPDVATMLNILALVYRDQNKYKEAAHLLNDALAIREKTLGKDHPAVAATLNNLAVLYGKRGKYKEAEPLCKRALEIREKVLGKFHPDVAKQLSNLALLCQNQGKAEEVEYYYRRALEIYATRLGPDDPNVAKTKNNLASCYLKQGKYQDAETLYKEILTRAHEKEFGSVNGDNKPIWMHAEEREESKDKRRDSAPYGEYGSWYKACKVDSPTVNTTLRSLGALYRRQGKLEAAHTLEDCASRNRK

No constants are given. Whether binding was seen depends on the method and setting.

These results are taken from paper PMC3314626, “Crystal Structures of the Tetratricopeptide Repeat Domains of Kinesin Light Chains: Insight into Cargo Recognition Mechanisms” (PLoS ONE, 2012).

In the case of EYTCPTEDIYLE (N-terminal acetyl (Ac-); free C-terminal carboxylate (-COOH)) [JIP1 peptide (C-terminal residues of JNK-interacting protein 1)], the binding entry is recorded as “no binding”.
